Patent publication US11358931B2, “Selective androgen receptor modulators (SARMs) and uses thereof” (priority 2007, dated 2022)
At least one compound was matched to its structure with a doubt left.

Test system: ovariectomized mature female rat
Test: In vivo assay, ovariectomized mature female rats (12 weeks)
Conditions: OVX rats
Description: In animal models of osteoporosis, androgens increase bone density and strength in male rats (Wakely et al., J Bone & Mineral Research 6: 325-330 (1991) and Vandenput et al., Calcified Tissue International 70: 170-175 (2002)) and female rats (Tobias et al., Am J Physiology 267: E853-E859 (1994) and Coxam et al., Bone 19: 107-114 (1996)). The ovariectomized mature female rat model was used to assess the effects of orally administered compounds provided herein, such as Compound 102, on bone as well as other efficacy and side-effect endpoints including muscle mass, fat mass and clitoral gland weight.
In this assay, approximately three-month old rats were acclimated in a vivarium for one week. After acclimation, rats were anesthetized with Avertin and the ovariectomy (OVX) was performed using the dorsal approach. For the sham procedure, the surgical procedure was conducted per protocol, and the ovaries exteriorized but not removed. After recovery, no further experimental manipulations were performed for seven weeks, at which point the rats were scanned by dual energy x-ray absorptiometry and sorted into experimental groups based upon femoral bone mineral content (BMC). Three dosages of Compound 102 were tested (0.03, 0.3 and 3 mg/kg/day PO). For comparison, ostarine, a known non-steroidal SARM, was tested at the same dosages (0.03, 0.3 and 3 mg/kg/day PO). In addition, reference compounds estradiol and testosterone were administered. Estradiol was administered subcutaneously to one ovariectomized group at a dose of 0.1 mg/kg/day and testosterone propionate was administered subcutaneously to another ovariectomized group at a dose of 1 mg/kg/day.
Treatment continued once daily for 12 weeks, at which point animals were euthanized and tissues were collected for further analysis. Animals received subcutaneous injections of fluorochrome markers for bone histomorphometric analysis. Alizarian Red S was prepared as a 3% solution and given at a dose of 30 mg/kg at the time of the baseline scan. Calcein was administered 10 days and 3 days prior to necropsy.
After the 14th dose, approximately 250 μL venous blood was collected via percutaneous jugular puncture from the rats at 0, 0.5, 1, 2, 4 and 6 hours post-dosing. The blood samples were collected into lithium-heparin tubes (Becton Dickinson, Franklin Lakes, N.J.). Plasma fractions were collected for pharmacokinetic analysis. Approximately 24 hours after the last dose, rats were sacrificed by cardiac exsanguination, and blood was collected into serum separator tubes (Becton Dickinson), and the gastrocnemius muscle, plantaris muscle, uterus, clitoral glands, clitoris and inguinal fat pads were isolated, blotted and weighed individually. Uterine weight measurements can be inaccurate in surgically ovariectomized rats due to the potential loss of uterine tissue at the tips of the uterine horns during removal of the ovaries. To minimize this variability, the length of the uterine horns was measured and the uterine weight was reported normalized to uterine length. The left femur and lumbar vertebra L5 were wrapped in saline-soaked gauze and stored at −20° C. for biochemical analysis. The right femur and lumbar vertebrae L3-L4 were collected and stored in 70% ethanol for histomorphometry. The right tibia was collected in formalin for histological analysis. The left tibia was collected on dry ice and stored at −20° C. for measurement of alkaline phosphatase activity.
Compound 102 and ostarine individually were formulated in a solution containing 5% Tween-80 polysorbate, 90% PEG-400 polyethylene glycol, and 5% polyvinylpyrrolidone K30. The mixture was stirred and sonicated in a water bath for 30 minutes until the compound dissolved into a solution. After sonication, 1% carboxymethyl cellulose (CMC) in water was added to the solution in a 9:1 ratio (9 parts CMC/water solution to 1 part PEG-400/Tween-80/PVP). Compound 102 and ostarine were administered orally in a volume of 4 mL/kg. […]

C[C@]12CC[C@@H]3c4ccc(O)cc4CC[C@H]3[C@@H]1CC[C@@H]2O [estradiol]
alkaline phosphatase activity from isolated tibiae (12 weeks): significantly suppressed | whole femur bending stiffness (12 weeks, 3-point bending): did not have a significant effect | whole femur bending strength (12 weeks, 3-point bending): did not have a significant effect | cortical bone area (12 weeks, histomorphometry): suppressed | periosteal bone formation / anabolic activity on the periosteal surface (12 weeks, histomorphometry): suppressed bone formation rate | serum osteocalcin (12 weeks, versus vehicle-treated OVX controls): suppressed osteocalcin below the levels of vehicle-treated OVX controls | inguinal fat pad weight (12 weeks, any dose, estradiol 0.1, testosterone propionate 1 mg/kg/day s.c.): reduced the elevated fat pad weight | femur BMC, DEXA (after 12 weeks of dosing): but not BMC | femur BMD, DEXA (after 12 weeks of dosing): significantly increased femur BMD | lumbar spine bone mineral content (BMC), DEXA (after 12 weeks of dosing): did not alter bone mineral content | lumbar spine bone mineral density (BMD), DEXA (after 12 weeks of dosing): increased spinal bone density
